For some of these results: At least one structure is not confirmed: it was looked up by name or label, or the drawing left a doubt. Some compounds share one wording; it may come from a single statement. Some results were stated once for a whole list of compounds, not compound by compound.
What was measured:
stink bugs = assay: Test for Confirmation of Stink Bug Behaviors against Active Ingredients 1, 2, 3 (treated filter paper); type: in vivo, southern green stink bugs; settings: Test 3, 400 μL
Source text: The test samples in “Test for Confirmation of Honeybee Repelling Effect 1” above were used.
A liquid calcium carbonate/ethanol dispersion was applied on the entire interior wall of a KP cup (100 mm in diameter×90 mm in height) and air-dried, after which a filter paper (90 mm in diameter) was fixed on the bottom face of the KP cup using double-sided tape. A different filter paper (90 mm in diameter) was cut along its diameter and the resulting semicircle-shaped paper was uniformly treated with 400 μL of each test sample or sample for correction, and then placed over the filter paper fixed on the aforementioned bottom face of the KP cup by allowing the circular parts to overlap, for use as a testing device.
The “repelling rate Y” and “corrected repelling rate Z” were calculated from the above “time A (sec)” and “time B (sec)” using the calculation formula below. For the “repelling rate of sample for correction” used to calculate the “corrected repelling rate Z,” the repelling rate of each of the samples for correction above (ethanol alone or water alone being a solvent for the active ingredient) was used.
Corrected repelling rate Z (%)={Repelling rate of test sample−Repelling rate of sample for correction}/{100−Repelling rate of sample for correction}×100
For the test samples, the test samples in “Test for Confirmation of Honeybee Repelling Effect 2” above were used.

honeybees = assay: Test for Confirmation of Honeybee Repelling Effect 1, 2, 3 (feeding station with 40% sugar water); type: in vivo; settings: Test 3, summary in text
Source text: The following were used as the test samples for Examples: 2% by weight per volume ethanol solutions of octane (a-1), tetradecane (a-2), heptadecane (a-3), nonadecane (a-4), 2-acetylfuran (b-1), 5-methyl-2-furaldehyde (b-2), furfural (b-3), furaneol (c-1), 2-acetylpyrrole (d-1), 1-benzylpyrrole (d-2), 1-octanol (e-1), 1-dodecanol (e-2), and 1-octadecanol (e-3), respectively; and 2% by weight per volume aqueous solutions of furfuryl alcohol (b-4), sotolon (c-2), and α-angelicalactone (c-3), respectively.
The following were used as the test samples for Comparative Examples: 2% by weight per volume ethanol solutions of eicosane (carbon number 20, p-1), heneicosane (carbon number 21, p-2), 2-methyloctane (branched alkane, p-3), tributyl o-acetylcitrate (p-4), and 1-methylpyrrole (p-5), respectively; and 2% by weight per volume aqueous solutions of 2-methyltetrahydrofuran-3-one (p-6) and acetic acid (p-7), respectively.
Ethanol alone and water alone were used as samples for correction.
The cotton pads 13 were impregnated with 40% sugar water (80 g), after which disposable wooden chopsticks 15 (80 mm in length) were placed over the cotton pads on the lid surface as “landing areas,” for use as “test insect (honeybee) feeding station 1” 10.
A nest box of test insects (honeybees) (1 colony: approx. 6,000 bees) was placed at the center of a glass hothouse (bottom face: 5 m×10 m, height (highest part): 3 m, temperature: 25° C.), and the aforementioned “test insect (honeybee) feeding station 1” was installed at a location 2 meters away from the nest box.
After confirming that at least five test insects (honeybees) were feeding at the above “test insect (honeybee) feeding station 1” installed in the hothouse, test 1 was conducted to measure the “approaching count (Mz)” and “landing count (My)” and calculate the “landing rate (Mx).” […]
The “repelling rate Q” and “corrected repelling rate R” were calculated from the above “landing rates” using the calculation formula below. […]

[1] = 0.1% by weight per volume solution

| Structure (SMILES) | Corrected repelling rate (%) Stinkbugs (stink bugs; [1]) | honeybee repelling rate (honeybees) [%] | further results |
| --- | --- | --- | --- |
| CC(C)CO.CC(C)CO [e-5, 2-methyl-1-propanol (isobutanol)] | x (“x” for rates “not <0”) |  |  |
| CSCCCO [y-3, methionol] |  |  | Corrected repelling rate (%) Stinkbugs (stink bugs; 2.0% by weight per volume solution): x (“x” for rates “not <0”) |
| CC(=O)OC(C)(C)C1CC=C(C)CC1 (stereo not shown) [y-29, terpinyl acetate] | x (“x” for rates “not <0”) |  |  |
| COC(=O)c1ccccc1N [y-33, methyl anthranilate] |  | ≥ 50 |  |
| C=CCOC(=O)Cc1ccccc1 [y-44, allyl phenylacetate] |  | ≥ 50 |  |
| CC(=O)c1ccc(C)cc1 [y-68, 4-methylacetophenone] | x (“x” for rates “not <0”) |  |  |
| COc1ccc(C(=O)O)cc1OC [y-75, 3,4-dimethoxybenzoic acid] |  | ≥ 50 |  |

From patent US20230210116A1, “HONEYBEE REPELLENT” (EARTH CORPORATION, priority 2020, published 2023)
